Laboratory results from article PMC11262647.
No constants are given. Whether binding was seen depends on the method and setting. Binding seen in cells or lysates may run through a third protein. Some binding calls cover weakened binding; strength is not graded here. For part of these data: Where a sequence is shown, tags or fusion partners need not be part of it. Blank lines part the entries; values can stand above or below the binder they belong to.

The chains behind the UniProt entries cited, without tags or fusion partners.
UniProt Q7Z434: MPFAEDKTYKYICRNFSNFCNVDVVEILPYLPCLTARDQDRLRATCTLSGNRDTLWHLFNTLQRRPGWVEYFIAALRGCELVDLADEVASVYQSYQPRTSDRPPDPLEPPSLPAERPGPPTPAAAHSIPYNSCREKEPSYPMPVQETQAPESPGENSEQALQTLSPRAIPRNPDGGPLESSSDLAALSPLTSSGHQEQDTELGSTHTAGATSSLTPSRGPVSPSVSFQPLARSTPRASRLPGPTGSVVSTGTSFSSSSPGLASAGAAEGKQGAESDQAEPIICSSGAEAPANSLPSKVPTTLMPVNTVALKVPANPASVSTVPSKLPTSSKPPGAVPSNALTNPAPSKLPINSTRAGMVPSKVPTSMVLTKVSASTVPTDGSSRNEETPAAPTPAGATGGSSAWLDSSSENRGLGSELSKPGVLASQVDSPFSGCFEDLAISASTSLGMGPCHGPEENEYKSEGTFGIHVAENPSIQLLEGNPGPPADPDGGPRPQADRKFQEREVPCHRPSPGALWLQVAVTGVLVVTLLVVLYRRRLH

Assays:
[1] = target: MYC-tagged MAVS (mitochondrial antiviral signaling protein), full-length (human (cDNA from A549 cells)) (UniProt Q7Z434); test: co-IP; HEK293T cells co-transfected with the tagged plasmids for 24 h; lysates precipitated overnight at 4°C with anti-HA or anti-MYC magnetic beads; washed three times with TENT buffer; blots with HA and MYC antibodies
[2] = target: T1, RIG-I (retinoic acid-inducible gene 1), endogenous (human (endogenous in A549)) (UniProt O95786); test: co-IP; endogenous proteins; A549 cells transfected with poly(I:C)-H, poly(I:C)-L or poly(dA:dT); lysates precipitated with RIG-I antibody or isotype control overnight at 4°C, Protein A magnetic beads 4 h; washed with TENT buffer; immunoblot
T1 sequence: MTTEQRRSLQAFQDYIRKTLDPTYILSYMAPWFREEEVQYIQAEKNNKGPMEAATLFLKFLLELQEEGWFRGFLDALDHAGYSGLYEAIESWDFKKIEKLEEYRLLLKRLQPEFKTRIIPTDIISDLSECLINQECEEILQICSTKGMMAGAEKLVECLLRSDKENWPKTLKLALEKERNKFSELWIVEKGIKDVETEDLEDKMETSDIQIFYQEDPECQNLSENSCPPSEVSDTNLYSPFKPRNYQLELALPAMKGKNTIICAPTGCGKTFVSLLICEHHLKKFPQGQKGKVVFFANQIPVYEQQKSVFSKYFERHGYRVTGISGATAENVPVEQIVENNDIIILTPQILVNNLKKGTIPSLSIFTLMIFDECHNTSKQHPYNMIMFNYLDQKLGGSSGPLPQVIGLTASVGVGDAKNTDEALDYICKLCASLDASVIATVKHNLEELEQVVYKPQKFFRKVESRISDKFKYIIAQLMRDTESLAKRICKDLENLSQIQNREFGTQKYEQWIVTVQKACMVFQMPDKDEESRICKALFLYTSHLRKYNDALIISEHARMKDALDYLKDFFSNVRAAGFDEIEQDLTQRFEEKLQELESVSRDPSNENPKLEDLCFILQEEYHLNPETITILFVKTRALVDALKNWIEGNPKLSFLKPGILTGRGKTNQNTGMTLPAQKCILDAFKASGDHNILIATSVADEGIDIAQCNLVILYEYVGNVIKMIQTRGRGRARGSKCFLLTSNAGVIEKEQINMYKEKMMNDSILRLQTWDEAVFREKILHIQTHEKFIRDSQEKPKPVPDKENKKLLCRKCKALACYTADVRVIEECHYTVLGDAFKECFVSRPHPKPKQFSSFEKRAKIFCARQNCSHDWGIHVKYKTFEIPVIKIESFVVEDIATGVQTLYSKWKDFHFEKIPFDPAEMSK

[3] = target: T2, HA-tagged RIG-I (retinoic acid-inducible gene 1) (UniProt O95786); test: co-IP; HEK293T cells co-transfected with the tagged plasmids for 24 h; lysates precipitated overnight at 4°C with anti-HA or anti-MYC magnetic beads; washed three times with TENT buffer; blots with HA and MYC antibodies
T2 sequence: T1 sequence

binding [1]: binds
B1: HA-tagged DHX35 (DEAH (Asp-Glu-Ala-His) box polypeptide 35), full-length (protein, UniProt Q9H5Z1 1-703)
chain: MAAPVGPVKFWRPGTEGPGVSISEERQSLAENSGTTVVYNPYAALSIEQQRQKLPVFKLRNHILYLIENYQTVVIVGETGCGKSTQIPQYLAEAGWTAEGRVVGVTQPRRVAAVTVAGRVAEERGAVLGHEVGYCIRFDDCTDQLATRIKFLTDGMLVREMMVDPLLTKYSVIMLDEAHERTLYTDIAIGLLKKIQKKRGDLRLIVASATLDADKFRDFFNQNETSDPARDTCVILTVEGRTFPVDIFYLQSPVPDYIKSTVETVVKIHQTEGDGDVLAFLTGQEEVETVVSMLIEQARALARTGMKRHLRVLPMYAGLPSFEQMKVFERVSRSVRKVIVATNVAETSITISGIVYVIDCGFVKLRAYNPRTAIECLVVVPVSQASANQRAGRGGRSRSGKCYRLYTEEAFDKLPQSTVPEMQRSNLAPVILQLKALGIDNVLRFHFMSPPPAQSMVQALELLYALGGLDKDCRLTEPLGMRIAEFPLNPMFAKMLLESGNFGCSQEILSIAAMMQIQNIFVVPPNQKSHAIRVHRKFAVEEGDHLTMLNIYEAFIKHNKDSKWCQEHFLNYKGLVRAATVREQLKKLLVKFQVPRKSSEGDPDLVLRCIVSGFFANAARFHSTGAYRTIRDDHELHIHPASVLYAEKPPRWVIYNEVIQTSKYYMRDVTAIESAWLLELAPHFYQQGTHLSLKAKRAKVQDP

binding [2]: binds
B2: DHX35 (DEAH box polypeptide 35), endogenous (protein, UniProt Q9H5Z1 1-703)
chain: B1 chain

binding [3]: binds
B3: MYC-tagged DHX35, full-length (protein, UniProt Q9H5Z1 1-703)
chain: B1 chain
